# Measured values reported in PubChem BioAssay AID595 (National Center for Advancing Translational Sciences (NCATS), 2007).
# Out of some 71,000 compounds screened, about 310 (0.44%) were called active. The shares of active, inactive and inconclusive entries below differ from those in the screen. The call rests on the fitted dose curve; in most records, active means well fitted curve in either direction with a large enough effect; inconclusive means small, poorly fitted or top-dose-only effect, or another doubt; inactive means flat fitted curve, though single readings scatter. A potency beside an inconclusive call is a rough fit, not a confirmed value.
# Tested on: Hsp90 C-terminal peptide / TPR2A (Hop) interaction, human
# Assay: qHTS Assay for Disrupters of an Hsp90 Co-Chaperone Interaction
# Details: AlphaScreen TPR2A-His6 binding biotin-Hsp90 C-terminal peptide; activity change, negative = inhibition: at 57 µM (top of the series) unless noted
# On the % scale 0 is the no-effect control and ±100 the full control effect; potency means the concentration at half of the fitted maximal effect.
SMILES,"activity change, negative = inhibition",Potency
CCCc1cc(N2CCN(c3ccccn3)CC2)n2nc(C)c(-c3ccccc3)c2n1,inconclusive: 46.6%,
COc1ccccc1NC(=O)c1oc2ccc(C)cc2c1C,,"inconclusive: 31.6 µM [activator, single point]"
CC[C@H]1CN(C)[C@H]2Cc3c([nH]c4ccccc34)C(=O)C[C@H]1[C@H]2C(=O)OC,inconclusive: 82.5% [at 11 µM],
O=C(Nc1ccc(Oc2ccc(Cl)cc2)cc1)c1ncn[nH]1,,"inconclusive: 25.1 µM [inhibitor, single point]"
CCOC(=O)c1cnn2c(C)cc(-c3ccccc3)nc12,inactive: -1.41%,
COc1cccc(-c2cnc(NCc3cc(Cl)ccc3O)n2C)c1,,"inconclusive: 25.1 µM [inhibitor, partial curve]"
COc1ccccc1N(CC(=O)NC1CCCCC1)S(C)(=O)=O,inconclusive: 42.2%,
CCOC(=O)NCc1cc(-c2nn(C)c(=O)c3ccccc23)ccc1C,inconclusive: 42.9%,
O=C1CCc2cc(S(=O)(=O)N3CCC(C(=O)NCc4ccccn4)CC3)ccc2N1,,"inconclusive: 39.8 µM [inhibitor, single point]"
CC(C)CNC(=O)c1noc2c1CCCC2,inconclusive: 49.9% [at 2.3 µM],
Cc1ccnc(SCC(=O)Nc2sc3c(c2C#N)CCCC3)n1,inactive: -1.42%,
COc1ccc(C(=O)COC(=O)CN2C(=O)NC(C)(C)C2=O)cc1OC,inactive: -0.826%,
Cc1c(C(=O)O)c(O)cc2c1C(=O)c1c(O)c([C@H]3O[C@H](CO)[C@@H](O)[C@H](O)[C@H]3O)c(O)c(O)c1C2=O,,"inconclusive: 20 µM [inhibitor, partial curve]"
CCCCCCCCC,inactive: -1.8%,
O=C(c1ccncc1)N1CCC2(CC1)CN(c1ccc(-c3ccccc3)cc1)C2,inactive: -16.6%,
CC1CCN(C(=O)Cn2c(=O)oc3ccccc32)CC1,inconclusive: 41.7%,
COC(=O)c1ccccc1NC(=O)c1ccc(COc2ccccc2)o1,,"inconclusive: 25.1 µM [activator, single point]"
NCCNCCNCCN,,active: 6.31 µM
COc1cccc(OCCSc2nnc3sc4ccccc4n23)c1,inactive: 1.12%,
CCOC(=O)CSCc1nc(-c2ccc(Cl)cc2)oc1C,inconclusive: 41.6% [at 2.3 µM],
O=C(CNS(=O)(=O)c1cccc2nsnc12)NCc1ccc(Cl)cc1,inactive: -0.542%,
COc1ccc2nc(-c3ccccc3)[nH]c2c1,inactive: -1.69%,
COCC(=O)N1CCC[C@@]2(CCN(c3ccccn3)C2)C1,inactive: -2.58%,
c1ccc(Cc2nnc3sc(-c4cccnc4)nn23)cc1,inconclusive: 32.2%,
Cc1ccc(Cl)cc1N1CCN(S(=O)(=O)c2ccc3c(c2)OCCO3)CC1,inactive: 5.47%,
Cc1nc(N2CCN(S(=O)(=O)c3ccc(F)cc3)CC2)c2c(C)c(C)sc2n1,inconclusive: 61.2%,
O=S(=O)(O)c1ccc(N=Nc2ccc3c(S(=O)(=O)O)cccc3c2O)c2ccccc12,,"inconclusive: 3.98 µM [inhibitor, partial curve]"

SMILES,"activity change, negative = inhibition",Potency
CCn1cnc2c1c(=O)n(Cc1nnc3n1-c1ccccc1SC3)c(=O)n2Cc1ccccc1,inconclusive: 39.4%,
COc1cccc(S(=O)(=O)Nc2ccc(C(=O)N3CCOCC3)cc2)c1,inconclusive: 44.3%,
Cc1ccc(C)c(-c2nc3ccc(N)cc3[nH]2)c1,inactive: -3.85%,
O=C(O)[C@@H](O)[C@@H](O)[C@@H](O)[C@@H](O)C(=O)O (tested in a mixture with another compound),inactive: -2.89% [at 26 µM],
COC(=O)c1sc(N2C(=O)C(O)=C(C(=O)c3ccc(C)o3)C2c2ccc(F)cc2)nc1C (stereo not drawn),inactive: -15.2% [at 11 µM],
C[C@@H](N=C(N)N)C(=O)O,inconclusive: 90% [at 11 µM],
O=C(CN1C(=O)NC2(CCCCCC2)C1=O)c1ccc2c(c1)OCCO2,inconclusive: 35.9%,
COc1cccc(C(=O)NC2CC3CCCC(C2)N3CC(=O)Nc2ccccc2)c1 (stereo not drawn),,"inconclusive: 25.1 µM [inhibitor, single point]"
CCCC[C@@H]1C[C@H]1C(NC(=O)c1ccccc1)c1ccc(C(F)(F)F)cc1 (stereo partly drawn),inconclusive: 166%,
CCCN1CC=C2C(C#N)=C(N)C(C#N)(C#N)C(c3cc(OC)ccc3OC)C2C1 (stereo not drawn),,"inconclusive: 25.1 µM [inhibitor, single point]"
Cc1cc2n(n1)C(c1sccc1C)Nc1ccccc1-2 (stereo not drawn),,"inconclusive: 39.8 µM [activator, single point]"
COc1cc2nc(N3CCN(C(=O)[C@@H]4COc5ccccc5O4)CC3)nc(N)c2cc1OC,inactive: -8.96% [at 26 µM],
O=C(Nc1nnc(CCN2CCOCC2)s1)C1CCCCC1,inactive: -9.79%,
O=C(NCc1ccccn1)Nc1cccc(Cl)c1,,"inconclusive: 31.6 µM [inhibitor, single point]"
COCc1cc(C)nc(N2CCc3ccccc32)c1C#N,,"inconclusive: 20 µM [activator, single point]"
COc1ccccc1NC(=O)CSCC(N)=O,inconclusive: 56.8%,
Cc1occc1-c1nnc(SCC(=O)c2cc3ccccc3oc2=O)o1,,"inconclusive: 31.6 µM [inhibitor, single point]"
Cc1ccc(S(=O)(=O)C2(C(=O)Nc3ccc4c(c3)OCO4)CC2)cc1,inconclusive: 42% [at 2.3 µM],
CC1=CC(C)(C)N(C(=O)c2ccccc2)c2ccccc21,inconclusive: 68%,
CSc1nc(C)c(C(=O)Nc2ccccc2)c(C)c1C#N,inconclusive: 57.7%,
O=C(CC1(O)C(=O)Nc2ccccc21)c1ccc2c(c1)OCO2 (stereo not drawn),inconclusive: 49.9% [at 11 µM],
COCCCn1c2nc3ccccc3nc2c2c(=O)n(Cc3ccc(Cl)cc3)cnc21,inactive: -2.04%,
CCOc1nc(-c2ccc(OC)cc2)ccc1-c1noc(C)n1,inactive: 2.67%,
CCOC(=O)c1cn(CC(=O)Nc2ccc(C(C)C)cc2)nn1,inconclusive: 40.2%,
CCNc1ncc2nc(-c3cn(C)c4ccccc34)c(=O)n(Cc3ccc(F)cc3)c2n1,,"inconclusive: 20 µM [activator, single point]"
O=C(COc1ccc(S(=O)(=O)N2CCCC2)cc1Cl)Nc1ccc2c(c1)OCO2,inconclusive: 41.2%,
